Results deposited as PubChem BioAssay AID1224826 (NIAID, 2016)
Test: 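Genes that change LPS-induced Tnf promoter activity in mouse macrophages when knocked down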 (primary screen). Cell system: RAW264.7 G9 macrophages from mouse bearing reporters for p65 (GFP) and the Tnf promoter (mCherry). Reagents: siRNA pool against mouse genes, 100 nM. Time to read-out: 16 h of LPS stimulation, after 2 days of siRNA transfection. Conditions: bacterial lipopolysaccharide (Salmonella minnesota R595), 10 ng/ml. Read-out: 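Imaged Tnf reporter mCherry in nuclei, minus background, normalised per plate to the median and expressed as robust z-scores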. Direction: Tnf reporter robust z-score: higher = stronger Tnf promoter reporter signal after LPS. Rule for the call: 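a well counts as active at a score of -1.3 or below (Tlr4 knock-down control median) or above 3 (raised signal); controls and wells holding fewer than 50 cells are excluded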. Calls: active = Tnf reporter clearly lowered or raised; inactive = no clear change in Tnf reporter.
In all, the deposit lists about 17,000 reagents; below is a random part of them. Over the whole deposit, about 1,110 (6.6%) are marked active. 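Active means lowered or raised reporter signal; replicate intensities are raw and not normalised per plate.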 Further read-outs or replicates are left out here.

Tbc1d25 | Tnf reporter robust z-score = -1.83; fewer than 50 cells in well = enough cells in well; call = active
Plekhg3 | Tnf reporter robust z-score = -1.16; fewer than 50 cells in well = enough cells in well; call = inactive
Mtmr2 | Tnf reporter robust z-score = -0.05; fewer than 50 cells in well = enough cells in well; call = inactive
Zfp473 | Tnf reporter robust z-score = -0.52; fewer than 50 cells in well = enough cells in well; call = inactive
Or8k53 | Tnf reporter robust z-score = 0.42; fewer than 50 cells in well = enough cells in well; call = inactive
Pa2g4 | Tnf reporter robust z-score = -0.91; fewer than 50 cells in well = enough cells in well; call = inactive
Ss18l2 | Tnf reporter robust z-score = -1.27; fewer than 50 cells in well = enough cells in well; call = inactive
Rbm26 | Tnf reporter robust z-score = 0.52; fewer than 50 cells in well = enough cells in well; call = inactive

Continued (2 carried over from the part before).
Ss18l2 | Tnf reporter robust z-score = -1.27; fewer than 50 cells in well = enough cells in well; call = inactive
Rbm26 | Tnf reporter robust z-score = 0.52; fewer than 50 cells in well = enough cells in well; call = inactive
Aspn | Tnf reporter robust z-score = -0.59; fewer than 50 cells in well = enough cells in well; call = inactive
Sgo1 | fewer than 50 cells in well = fewer than 50 cells per well; well left out of calls; call = inactive
Gabpb1 | Tnf reporter robust z-score = -1; fewer than 50 cells in well = enough cells in well; call = inactive
Ppp1r15b | Tnf reporter robust z-score = 0.5; fewer than 50 cells in well = enough cells in well; call = inactive
Dcaf12l1 | Tnf reporter robust z-score = 0.36; fewer than 50 cells in well = enough cells in well; call = inactive
Gsto1 | Tnf reporter robust z-score = -0.86; fewer than 50 cells in well = enough cells in well; call = inactive
Pcdhga4 | Tnf reporter robust z-score = -0.65; fewer than 50 cells in well = enough cells in well; call = inactive
Adgrf3 | Tnf reporter robust z-score = 0.02; fewer than 50 cells in well = enough cells in well; call = inactive
Trappc2l | Tnf reporter robust z-score = 1.35; fewer than 50 cells in well = enough cells in well; call = inactive
Or10g3 | Tnf reporter robust z-score = 0.41; fewer than 50 cells in well = enough cells in well; call = inactive
Gngt2 | Tnf reporter robust z-score = -0.37; fewer than 50 cells in well = enough cells in well; call = inactive
1700029M20Rik | Tnf reporter robust z-score = 0.78; fewer than 50 cells in well = enough cells in well; call = inactive
Slc6a6 | fewer than 50 cells in well = fewer than 50 cells per well; well left out of calls; call = inactive
